Results from publication PMC516168.
These are yes or no findings as the source states them, for the method shown. In cells and extracts the contact can be indirect. Some binding calls cover weakened binding; strength is not graded here. Where a sequence is shown, tags or fusion partners need not be part of it.

Protein sequences, listed by entry. Tags and fused reporters are not part of them.
UniProt Q8GUB5: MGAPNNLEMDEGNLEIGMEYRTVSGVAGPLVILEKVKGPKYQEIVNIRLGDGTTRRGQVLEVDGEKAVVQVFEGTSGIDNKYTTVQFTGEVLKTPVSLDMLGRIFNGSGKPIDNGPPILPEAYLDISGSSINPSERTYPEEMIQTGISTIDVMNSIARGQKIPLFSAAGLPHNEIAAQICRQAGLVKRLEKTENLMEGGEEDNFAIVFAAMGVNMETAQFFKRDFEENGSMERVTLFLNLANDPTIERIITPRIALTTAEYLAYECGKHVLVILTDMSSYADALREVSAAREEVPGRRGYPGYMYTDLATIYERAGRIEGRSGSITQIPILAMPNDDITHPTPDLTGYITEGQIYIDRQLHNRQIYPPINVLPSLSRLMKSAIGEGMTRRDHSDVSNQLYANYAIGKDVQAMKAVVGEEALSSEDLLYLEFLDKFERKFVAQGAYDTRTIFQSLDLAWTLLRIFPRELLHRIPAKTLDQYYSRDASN

Target: T1, Mc-VHA-H fused to YFP (M. crystallinum) (UniProt Q8GUB3)
T1 sequence: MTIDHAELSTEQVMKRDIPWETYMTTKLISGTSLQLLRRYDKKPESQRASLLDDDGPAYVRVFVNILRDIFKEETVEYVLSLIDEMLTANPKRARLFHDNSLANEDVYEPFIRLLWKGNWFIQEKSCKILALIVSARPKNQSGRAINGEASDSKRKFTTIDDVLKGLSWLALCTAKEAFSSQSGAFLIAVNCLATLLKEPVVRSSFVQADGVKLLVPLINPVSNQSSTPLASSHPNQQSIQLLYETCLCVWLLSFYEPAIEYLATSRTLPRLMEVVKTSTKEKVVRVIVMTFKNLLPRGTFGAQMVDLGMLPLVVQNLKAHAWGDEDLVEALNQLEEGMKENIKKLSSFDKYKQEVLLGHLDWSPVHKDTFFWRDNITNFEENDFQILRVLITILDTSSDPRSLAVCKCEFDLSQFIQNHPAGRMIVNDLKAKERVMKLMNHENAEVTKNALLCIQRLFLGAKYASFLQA
Test: FRET or BRET; in vivo FRET (CFP donor, YFP acceptor) in co-transformed onion epidermis cells; emission spectra before and after photobleaching of the acceptor

Q: “Mc-VHA-B fused to CFP (from UniProt Q8GUB5 1-487)” was tested. Which binding did it give?
A: binds weakly
